Experimental data as given in PubChem BioAssay AID1259415 (National Center for Advancing Translational Sciences (NCATS), 2018).
The whole screen tested about 410,000 compounds, of which about 18,000 (4.4%) were called active. Inconclusive results, whose numbers are uncertain, are shown with a selection of clear calls. Cut-off read from the data, not from the text of the source: active = activity change below about -60%; inconclusive = no clear call, values can overlap the other calls; inactive = above about -39%.

Assay: qHTS Assay for inhibitors of the human cytomegalovirus (HCMV)
Settings: HFF cells, HCMV-luciferase reporter, 72 h; at 57.5 µM; stronger effect = lower value
Procedure, shortened: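 Steps: HFFs plated, 16 h 37C; compounds added; HCMV-luciferase added to MOI 1 PFU/cell; 72 h 37C; OneGlo reagent, 5 min room temperature; luminescence read, normalized to controls.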
% is set by controls: 0 for no effect and ±100 for the full control effect.

Structure (SMILES)	activity change, negative = inhibition
O=C(c1ccc2c(c1)OCCO2)C1CCN(S(=O)(=O)c2ccccc2F)CC1	inconclusive: -45.1%
CCOc1ccccc1-n1cc2c(c1-c1ccc(OC)cc1)c(=O)n(C)c(=O)n2C	inactive: 5.07%
CC1(C)CN=C(N(C(=O)Nc2ccccc2)c2ccccc2F)S1	inconclusive: -41.9%
O=C(CN(Cc1cccs1)C(=O)CNS(=O)(=O)c1ccc(Cl)cc1)NCc1ccco1	inconclusive: -52.4%
CCOC(=O)C1=C(C)NC(SCC(=O)O)=C(C#N)C1c1ccco1 (stereo not given)	inactive: 28%
COc1ccc(Cl)cc1NC(=O)C(=O)NCc1ccncc1	inconclusive: -48.9%
C=Cc1ccc(Cn2c(C)c(C(=O)NCc3cccc(C)c3)sc2=O)cc1	active: -65%
Cc1cccc(Nc2nnc(SCC(=O)NC3CCCc4ccccc43)s2)c1 (stereo not given)	inconclusive: -43.3%
COC(=O)c1cc(-c2ccc(Cl)cc2)n[nH]1	inconclusive: -44.5%
Cc1nc2ncccn2c1-c1csc(Nc2cccc(C(=O)O)c2)n1	inactive: -7.61%
Cc1cccc(NC(=O)CSc2nnc(CNC(=O)c3ccco3)n2C)c1	inactive: 15.7%
Cc1ccc(S(=O)(=O)N2C[C@@H]3CCCC[C@@H]3[C@@H](C)[C@H]2c2cn(Cc3ccccc3)c3ccc(F)cc23)cc1	active: -65.2%
CC1(C(=O)Nc2cccc(Oc3ccccc3)c2)CCN1Cc1cccc2c1OCO2 (stereo not given)	inactive: -1.04%
CCc1nc2ccc(C(=O)NCc3ccc4c(c3)OCO4)cn2c1N(CCC(C)C)CCN(C)C	inactive: -24%
CCOC(=O)C1(CCc2ccccc2)CCN(Cc2cccc3nccnc23)CC1	inconclusive: -52.4%
COc1ccc(CNC(=O)Cn2nnc3ccccc3c2=O)cc1	inactive: -13.4%
Cc1ccc(CN(C(=O)COc2cccc([N+](=O)[O-])c2)c2ccccn2)cc1	inactive: -6.3%
N#C/C(=C(/O)CCCl)c1ccccn1	inconclusive: -40.2%
COc1ccc(NS(=O)(=O)c2c(C(=O)N3CCCCCC3)c(C)n(C)c2C)cc1	inconclusive: -44%
COc1ccc2oc(=O)c(NC(=O)C3CCCCC3)cc2c1	inactive: -21.6%
Cc1ccc(-n2c(SCC(=O)NCc3ccc(F)cc3)nc3c([nH]c4ccccc43)c2=O)cc1	inconclusive: -42%
O=c1[nH]c2ccc(S(=O)(=O)N3CCN(C4CCCCC4)CC3)cc2[nH]c1=O	inconclusive: -40.9%

Ordered by molecular weight (rising): 3 of the compounds above.
Structure (SMILES)	activity change, negative = inhibition
CCOC(=O)C1=C(C)NC(SCC(=O)O)=C(C#N)C1c1ccco1 (stereo not given)	inactive: 28%
Cc1ccc(CN(C(=O)COc2cccc([N+](=O)[O-])c2)c2ccccn2)cc1	inactive: -6.3%
COc1ccc(NS(=O)(=O)c2c(C(=O)N3CCCCCC3)c(C)n(C)c2C)cc1	inconclusive: -44%

Additional entries

Structure (SMILES)	activity change, negative = inhibition
O=C(Nc1ncccn1)c1ccc([N+](=O)[O-])cc1	inactive: 49%
Cc1ccc2nc(-c3ccc(N4C(=N)SC5CS(=O)(=O)CC54)cc3)sc2c1 (stereo not given)	inactive: 23%
O=C(c1cccc2ccccc12)C1CCCN(C(=O)C2CCOCC2)C1 (stereo not given)	inconclusive: -48.5%
O=C(O)c1cccc(NS(=O)(=O)c2ccc(-c3ccc(S(=O)(=O)Nc4cccc(C(=O)O)c4)cc3)cc2)c1	active: -72.2%
O=C(NCCc1ccccc1)C1CCN(S(=O)(=O)N2CCCCC2)CC1	inconclusive: -40.1%
CCC(Sc1nc2cc(OC)c(OC)cc2c(=O)n1CCc1ccc(Cl)cc1)C(=O)NCCOC (stereo not given)	inconclusive: -52.5%
CC(C)NC(=O)c1ccc(-n2c(-c3ccccc3)cc3c2CCCCC3)cc1	inconclusive: -52.6%
O=S(=O)(NCC1CN(S(=O)(=O)c2ccc3c(c2)OCCO3)C1)c1c(F)cccc1F	inactive: -3.7%
O=c1oc2ccccc2cc1-c1csc(Nc2nc3c(F)cccc3s2)n1	inactive: -27.6%
CC(=O)C1=C(C)N(Cc2ccccc2)C(=O)N[C@H]1CCc1ccccc1	active: -92.7%
O=C(Nc1ccc2c(c1)Cc1cc([N+](=O)[O-])ccc1-2)C(F)(F)F	inconclusive: -53.2%
COc1cccc(OC)c1C(=O)Nc1ccc(Br)c(C(=O)c2ccccc2)c1	inconclusive: -58.8%
CN(C(=O)c1ccccc1)c1ccccc1C(=O)NCCc1ccccc1	inactive: 34.9%
CCOc1cc(C)c(S(=O)(=O)Nc2ccc(F)cc2)cc1C	active: -62.1%
CCOC(=O)/C(C(=O)Nc1ccc(Br)cc1)=C1/NC(C)(C)Cc2ccccc21	inconclusive: -59.7%
CCN1CCN(c2ccc(NS(=O)(=O)c3c(C)nc4sccn4c3=O)cc2Cl)CC1	active: -68%
Cc1ccc(NC(=O)CCC(=O)NNC(=O)C(c2ccccc2)c2ccccc2)c(C)c1	inactive: 27.8%
Cc1ccc(OC(C)C(=O)Nc2ccc(Cl)cn2)c([N+](=O)[O-])n1 (stereo not given)	inconclusive: -46.8%
N/C(=N\S(=O)(=O)c1cc(C(F)(F)F)cc(C(F)(F)F)c1)c1ccc(Cl)cc1	inconclusive: -40.7%
COc1ccc(-c2nc(Cn3c(SCc4ccc(C)cc4)nc4cccnc43)c(C)o2)cc1OC	active: -97.8%
CCCN(C(=O)CSc1cc(-c2ccccc2)c2ccc(OC)cc2n1)C1CCS(=O)(=O)C1 (stereo not given)	inactive: 19.8%
C#CCOc1c(Cl)cc(/C=N/NC(N)=S)cc1OCC	inconclusive: -44.9%

Structure (SMILES)	activity change, negative = inhibition
Cc1cccc(-n2nc(C)c3c2NC(=O)CSC3c2ccccc2Cl)c1 (stereo not given)	inconclusive: -55.1%
c1ccc(CSc2ccc(-c3cccs3)nn2)cc1	inactive: -31%
CCCC(=O)NCCc1cc2c(C)ccc(C)c2[nH]c1=O	inconclusive: -42.2%
Fc1ccc(F)c(NC(=S)NCCc2ccccc2)c1	active: -66.1%
CCCCCC(=O)Nc1cccc(C2=NOC3(C2)C[C@H](C(N)=O)N(C(=O)[C@H]2CCC(=O)N2)C3)c1 (stereo not given in full)	inactive: -6.48%
Cc1ccsc1/C=C1\SC(=S)N(CC2CCCO2)C1=O (stereo not given)	inconclusive: -48.9%
Cc1ccc(NC(=S)Nc2ccc3[nH]c(=O)[nH]c3c2)cc1C	inconclusive: -43.7%
CCOC(=O)c1cccn1C1C(=O)N(Cc2ccc(C(C)C)cc2)c2ccc(OC(F)(F)F)cc21 (stereo not given)	inconclusive: -53.9%
O=C(Nc1c(Cl)cccc1Cl)c1ccc(-c2ccccc2)cc1	inconclusive: -50.8%
O=C(NCc1ccccc1)N1CCOc2ccccc21	inconclusive: -40%
CCOc1ccccc1-n1c(SCC(=O)N2CCOCC2)nc2ccccc2c1=O	inconclusive: -43.7%
CCc1ccc(CN2CCN(C(=O)c3cccc(OC)c3OC)CC2)cc1	inconclusive: -47.2%
COC(=O)c1ccccc1NC(=O)CN1CCC(C)CC1	inconclusive: -40.3%
CC1(C(=O)NCc2ccccc2)CN(S(C)(=O)=O)CC(=O)N1Cc1cccs1 (stereo not given)	inactive: -1.89%
CC(OC(=O)C(C)Oc1ccccc1)C(=O)Nc1ccc(S(=O)(=O)N2CCCCC2)cc1 (stereo not given)	inconclusive: -48%
N#Cc1nc(COc2ccccc2)oc1N1CCCCCC1	inconclusive: -53.2%
CC1C(=O)N(Cc2cn(CC3CCCCC3)nn2)CCS(=O)(=O)N1Cc1ccc(-c2ccncc2)cc1 (stereo not given)	inconclusive: -58%
Cc1ccc(OCC(=O)N/N=C/c2ccc([N+](=O)[O-])o2)cc1	inconclusive: -40.9%
O=C(Cn1c(=O)nc(-c2ccccc2)c2cc(Cl)ccc21)NCc1ccccc1	inconclusive: -54.6%
COc1cccc(CCC(=O)Nc2cc3c(cc2C(=O)O)OCCCO3)c1OC	inconclusive: -41.9%
CCOC(=O)c1ccc2c(c1)N(Cc1cccc([N+](=O)[O-])c1)C(=O)c1ccccc1S2	inactive: 8.46%
CC1(C)CC(=O)C=C(NCc2ccc(Cl)c(Cl)c2)C1	inconclusive: -41.3%

Structure (SMILES)	activity change, negative = inhibition
COc1cccc2[nH]c(C(=O)NC(C)c3ccccc3)cc12 (stereo not given)	inconclusive: -54%
O=C(NC1CCCCC1)N1CCN(c2nc(-c3ccccc3)cs2)CC1	inconclusive: -51.2%
O=C(Nc1cccc(-c2csc(Nc3ccc(Cl)cc3)n2)c1)c1ccccc1	inactive: -22.4%
CC(=O)Nc1cccc(-c2nn[nH]n2)c1	inconclusive: -44.9%
O=C(Nn1c(-c2ccc(Br)cc2)nc2ccccc2c1=O)c1ccc([N+](=O)[O-])cc1	inconclusive: -44.7%
O=C(c1ccc(N2CCN(C(=O)c3ccccc3Br)CC2)cc1)c1cccc(F)c1	inconclusive: -49.8%
O=C(NC(=S)NCc1ccccc1)C1CC1	inconclusive: -43.8%
COc1ccc(NC(=S)N2CCN(S(C)(=O)=O)CC2)cc1OC	inconclusive: -45.9%
C=C1c2c(Cl)ccc(O)c2C(O)=C2C(=O)[C@]3(O)C(O)=C(C(N)=O)C(=O)[C@@H](N(C)C)[C@@H]3[C@@H](O)C12 (stereo not given in full)	inconclusive: -40.7%
CC(=O)OC1(Cc2ccccc2)CN2CCC1c1ccccc12 (stereo not given)	inconclusive: -46.2%
c1ccc2c(N3CCCCCC3)nc(-c3ccncc3)nc2c1	inconclusive: -43.2%
O=C(CSc1nccn1-c1ccc(Cl)cc1)Nc1nc2ccccc2s1	inactive: 3.84%
COc1ccc(C(=O)O/N=C(\N)c2ccccn2)cc1	inconclusive: -50.7%
COc1cccc(CN(C)C(=O)c2cc(S(=O)(=O)N3CCN(c4ccccc4)CC3)ccc2Cl)c1	inconclusive: -56.2%
CCOC(=O)CN1C(=O)N[C@@H](c2ccccc2)[C@@H](C(=O)OC)[C@H]1C	inactive: -21.1%
COc1cccc(-c2csc(NNC(=O)c3cccs3)n2)c1	inconclusive: -46.6%
CCCCCCn1c(C)nc2c(c1=O)c1nc3ccccc3nc1n2/N=C/c1ccco1	inconclusive: -45.8%
CNS(=O)(=O)c1ccc(N=Cc2c(O)n(-c3ccc(C)cc3)c(=O)[nH]c2=O)cc1	inconclusive: -43.7%
Cc1ccc(S(=O)(=O)Nc2c(C)n(C)n(-c3ccccc3)c2=O)cc1C(=O)OC(C)C(=O)N(C)c1ccccc1 (stereo not given)	inconclusive: -50.2%

Filtered by structure: the compounds so far containing a furan ring, fused or not
Structure (SMILES)	activity change, negative = inhibition
O=C(CN(Cc1cccs1)C(=O)CNS(=O)(=O)c1ccc(Cl)cc1)NCc1ccco1	inconclusive: -52.4%
CCOC(=O)C1=C(C)NC(SCC(=O)O)=C(C#N)C1c1ccco1 (stereo not given)	inactive: 28%
Cc1cccc(NC(=O)CSc2nnc(CNC(=O)c3ccco3)n2C)c1	inactive: 15.7%
Cc1ccc(OCC(=O)N/N=C/c2ccc([N+](=O)[O-])o2)cc1	inconclusive: -40.9%
CCCCCCn1c(C)nc2c(c1=O)c1nc3ccccc3nc1n2/N=C/c1ccco1	inconclusive: -45.8%
